Source: paper PMC6639074
No constants are given. Whether binding was seen depends on the method and setting. Binding seen in cells or lysates may run through a third protein. These calls come from enrichment with a bait or labelling near it, and not all partners need be listed.

By UniProt entry, the sequences of proteins in these tests, tags left out. Where a name states a change or a piece, a line headed by the entry shows the natural chain unless it says otherwise.
UniProt P61019: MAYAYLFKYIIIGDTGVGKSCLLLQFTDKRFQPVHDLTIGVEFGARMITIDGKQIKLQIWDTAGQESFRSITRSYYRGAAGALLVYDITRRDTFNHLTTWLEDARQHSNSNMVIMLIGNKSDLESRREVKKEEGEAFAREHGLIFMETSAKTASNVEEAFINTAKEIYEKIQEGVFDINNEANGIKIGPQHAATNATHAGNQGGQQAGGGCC
UniProt P20340: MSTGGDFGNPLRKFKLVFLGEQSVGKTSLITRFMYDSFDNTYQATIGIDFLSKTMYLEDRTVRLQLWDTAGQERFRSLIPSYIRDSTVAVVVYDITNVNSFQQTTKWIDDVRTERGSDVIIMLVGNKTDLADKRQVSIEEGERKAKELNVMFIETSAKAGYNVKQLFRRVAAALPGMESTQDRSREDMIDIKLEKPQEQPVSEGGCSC

B1: WDR11 (protein, UniProt Q9BZH6 1-1224)
chain: MLPYTVNFKVSARTLTGALNAHNKAAVDWGWQGLIAYGCHSLVVVIDSITAQTLQVLEKHKADVVKVKWARENYHHNIGSPYCLRLASADVNGKIIVWDVAAGVAQCEIQEHAKPIQDVQWLWNQDASRDLLLAIHPPNYIVLWNADTGTKLWKKSYADNILSFSFDPFDPSHLTLLTSEGIVFISDFSPSKPPSGPGKKVYISSPHSSPAHNKLATATGAKKALNKVKILITQEKPSAEFITLNDCLQLAYLPSKRNHMLLLYPREILILDLEVNQTVGVIAIERTGVPFLQVIPCFQRDGLFCLHENGCITLRVRRSYNNIFTTSNEEPDPDPVQELTYDLRSQCDAIRVTKTVRPFSMVCCPVNENAAALVVSDGRVMIWELKSAVCNRNSRNSSSGVSPLYSPVSFCGIPVGVLQNKLPDLSLDNMIGQSAIAGEEHPRGSILREVHLKFLLTGLLSGLPAPQFAIRMCPPLTTKNIKMYQPLLAVGTSNGSVLVYHLTSGLLHKELSIHSCEVKGIEWTSLTSFLSFATSTPNNMGLVRNELQLVDLPTGRSIAFRGERGNDESAIEMIKVSHLKQYLAVVFRDKPLELWDVRTCTLLREMSKNFPTITALEWSPSHNLKSLRKKQLATREAMARQTVVSDTELSIVESSVISLLQEAESKSELSQNISAREHFVFTDIDGQVYHLTVEGNSVKDSARIPPDGSMGSITCIAWKGDTLVLGDMDGNLNFWDLKGRVSRGIPTHRSWVRKIRFAPGKGNQKLIAMYNDGAEVWDTKEVQMVSSLRSGRNVTFRILDVDWCTSDKVILASDDGCIRVLEMSMKSACFRMDEQELTEPVWCPYLLVPRASLALKAFLLHQPWNGQYSLDISHVDYPENEEIKNLLQEQLNSLSNDIKKLLLDPEFTLLQRCLLVSRLYGDESELHFWTVAAHYLHSLSQEKSASTTAPKEAAPRDKLSNPLDICYDVLCENAYFQKFQLERVNLQEVKRSTYDHTRKCTDQLLLLGQTDRAVQLLLETSADNQHYYCDSLKACLVTTVTSSGPSQSTIKLVATNMIANGKLAEGVQLLCLIDKAADACRYLQTYGEWNRAAWLAKVRLNPEECADVLRRWVDHLCSPQVNQKSKALLVLLSLGCFFSVAETLHSMRYFDRAALFVEACLKYGAFEVTEDTEKLITAIYADYARSLKNLGFKQGAVLFASKAGAAGKDLLNELESPKEEPIEE
B2: DENND5B (protein, UniProt Q6ZUT9 1-1274)
chain: MSGSCAAPGPGSGSSPAACRFAHYFVLCGIDADSGLEPDELAGENFDQSPLRRTFKSKVLAHYPQNIEWNPFDQDAVNMLCMPKGLSFRTQTDNKDPQFHSFIITREDGSRTYGFVLTFYEEVTSKQICTAMQTLYQMHNAEHYSSVYASSSCSMDSLASSLDEGDTTSLLKLQRYNSYDISRDTLYVSKSICLITPLPFMQACKKFLIQLYKAVTSQQPPPLPLESYIHNILYEVPLPPPGRSLKFYGVYEPVICQRPGPSELPLSDYPLREAFELLGLENLVQVFTCVLLEMQILLYSQDYQRLMTVAEGITTLLFPFQWQHVYVPILPASLLHFLDAPVPYLMGLQSKEGTDRSKLELPQEANLCFVDIDNHFIELPEEFPQFPNKVDFIQELSEVLVQFGIPPEGSLHCSESTSKLKNMVLKDLVNDKKNGNVCTNNISMYELLKGNETIARLQALAKRTGVAVEKMDLSASLGEKDKDLKLHCEEAELRDYQLNVQLREVFANRFTQMFADYEAFVIQTAQDMESWLTNREQMQNFDKASFLSDQPEPYLPFLSRFIETQMFATFIDNKIMSQWEEKDPLLRVFDTRIDKIRLYNVRAPTLRTSIYQKCSTLKEAAQSIEQRLMKMDHTAIHPHLLDMKIGQGKYEQGFFPKLQSDVLATGPTSNNRWVSRSATAQRRKERLRQHSEHVGLDNDLREKYMQEARSLGKNLRQPKLSDLSPAVIAQTNCKFVEGLLKECRMKTKRMLVEKMGHEAVELGHGEANITGLEENTLIASLCDLLERIWSHGLQVKQGKSALWSHLIQFQDREEKQEHLAESPVALGPERRKSDSGVMLPTLRVSLIQDMRHIQNMSEIKTDVGRARAWIRLSLEKKLLSQHLKQLLSNQPLTKKLYKRYAFLRCEEEREQFLYHLLSLNAVDYFCFTSVFTTIMIPYRSVIIPIKKLSNAIITSNPWICVSGELGDTGVMQIPKNLLEMTFECQNLGKLTTVQIGHDNSGLLAKWLVDCVMVRNEITGHTYRFPCGRWLGKGIDDGSLERILIGELMTSASDEDLVKQCRTPPQQKSPTTARRLSITSLTGKNNKPNAGQIQEGIGEAVNNIVKHFHKPEKERGSLTVLLCGENGLVAALEQVFHHGFKSARIFHKNVFIWDFIEKVVAYFETTDQILDNEDDVLIQKSSCKTFCHYVNAINTAPRNIGKDGKFQILVCLGTRDRLLPQWIPLLAECPAITRMYEESALLRDRMTVNSLIRILQTIQDFTIVLEGSLIKGVDV
B3: MB21D2 (protein, UniProt Q8IYB1 1-491)
chain: MKMAAPTANKAASLGCNNKPAFPELDFRSGARVEELNKLIQEFTKHDQREYDDQRALEIHTAKDFIFSMLGMVQKLDQKLPVANEYLLLSGGVREGVVDLDLDELNVYARGTDYDMDFTLLVPALKLHDRNQPVTLDMRHSALCHSWLSLRLFDEGTISKWKDCCTIVDHINGATNYFFSPTKVADWFYDSISIVLSEIQKKPQRGMPKVEKVEKNGTIISIILGVGSSRMLYDIVPVVSFKGWPAVAQSWLMENHFWDGKITEEEVISGFYLVPACSYKGKKDNEWRLSFARSEVQLKKCISSSLMQAYQACKAIIIKLLSRPKAISPYHLRSMMLWACDRLPANYLAQEDYAAHFLLGLIDDLQHCLVNKMCPNYFIPQCNMLEHLSEETVMLHARKLSSVRSDPAEHLRTAIEHVKAANRLTLELQRRGSTTSIPSPQSDGGDPNQPDDRLAKKLQQLVTENPGKSISVFINPDDVTRPHFRIDDKFF
B4: bicaudal-1 (protein, UniProt Q96G01 1-975)
chain: MAAEEVLQTVDHYKTEIERLTKELTETTHEKIQAAEYGLVVLEEKLTLKQQYDELEAEYDSLKQELEQLKEAFGQSFSIHRKVAEDGETREETLLQESASKEAYYLGKILEMQNELKQSRAVVTNVQAENERLTAVVQDLKENNEMVELQRIRMKDEIREYKFREARLLQDYTELEEENITLQKLVSTLKQNQVEYEGLKHEIKRFEEETVLLNSQLEDAIRLKEIAEHQLEEALETLKNEREQKNNLRKELSQYISLNDNHISISVDGLKFAEDGSEPNNDDKMNGHIHGPLVKLNGDYRTPTLRKGESLNPVSDLFSELNISEIQKLKQQLMQVEREKAILLANLQESQTQLEHTKGALTEQHERVHRLTEHVNAMRGLQSSKELKAELDGEKGRDSGEEAHDYEVDINGLEILECKYRVAVTEVIDLKAEIKALKEKYNKSVENYTDEKAKYESKIQMYDEQVTSLEKTTKESGEKMAHMEKELQKMTSIANENHSTLNTAQDELVTFSEELAQLYHHVCLCNNETPNRVMLDYYRQSRVTRSGSLKGPDDPRGLLSPRLARRGVSSPVETRTSSEPVAKESTEASKEPSPTKTPTISPVITAPPSSPVLDTSDIRKEPMNIYNLNAIIRDQIKHLQKAVDRSLQLSRQRAAARELAPMIDKDKEALMEEILKLKSLLSTKREQIATLRAVLKANKQTAEVALANLKNKYENEKAMVTETMTKLRNELKALKEDAATFSSLRAMFATRCDEYVTQLDEMQRQLAAAEDEKKTLNTLLRMAIQQKLALTQRLEDLEFDHEQSRRSKGKLGKSKIGSPKVSGEASVTVPTIDTYLLHSQGPQTPNIRVSSGTQRKRQFSPSLCDQSRPRTSGASYLQNLLRVPPDPTSTESFLLKGPPSMSEFIQGHRLSKEKRLTVAPPDCQQPAASVPPQCSQLAGRQDCPTVSPDTALPEEQPHSSSQCAPLHCLSKPPHP
B5: ERC2 (protein, UniProt O15083 1-957)
chain: MYGSARTITNLEGSPSRSPRLPRSPRLGHRRTSSGGGGGTGKTLSMENIQSLNAAYATSGPMYLSDHEGVASTTYPKGTMTLGRATNRAVYGGRVTAMGSSPNIASAGLSHTDVLSYTDQHGGLTGSSHHHHHQVPSMLRQVRDSTMLDLQAQLKELQRENDLLRKELDIKDSKLGSSMNSIKTFWSPELKKERVLRKEEAARMSVLKEQMRVSHEENQHLQLTIQALQDELRTQRDLNHLLQQESGNRGAEHFTIELTEENFRRLQAEHDRQAKELFLLRKTLEEMELRIETQKQTLNARDESIKKLLEMLQSKGLPSKSLEDDNERTRRMAEAESQVSHLEVILDQKEKENIHLREELHRRSQLQPEPAKTKALQTVIEMKDTKIASLERNIRDLEDEIQMLKANGVLNTEDREEEIKQIEVYKSHSKFMKTKIDQLKQELSKKESELLALQTKLETLSNQNSDCKQHIEVLKESLTAKEQRAAILQTEVDALRLRLEEKESFLNKKTKQLQDLTEEKGTLAGEIRDMKDMLEVKERKINVLQKKIENLQEQLRDKDKQLTNLKDRVKSLQTDSSNTDTALATLEEALSEKERIIERLKEQRERDDRERLEEIESFRKENKDLKEKVNALQAELTEKESSLIDLKEHASSLASAGLKRDSKLKSLEIAIEQKKEECSKLEAQLKKAHNIEDDSRMNPEFADQIKQLDKEASYYRDECGKAQAEVDRLLEILKEVENEKNDKDKKIAELESLTLRHMKDQNKKVANLKHNQQLEKKKNAQLLEEVRRREDSMADNSQHLQIEELMNALEKTRQELDATKARLASTQQSLAEKEAHLANLRIERRKQLEEILEMKQEALLAAISEKDANIALLELSASKKKKTQEEVMALKREKDRLVHQLKQQTQNRMKLMADNYDDDHHHYHHHHHHHHHRSPGRSQHSNHRPSPDQDDEEGIWA
B6: TMF1 (protein, UniProt P82094 1-1093)
chain: MSWFNASQLSSFAKQALSQAQKSIDRVLDIQEEEPSIWAETIPYGEPGISSPVSGGWDTSTWGLKSNTEPQSPPIASPKAITKPVRRTVVDESENFFSAFLSPTDVQTIQKSPVVSKPPAKSQRPEEEVKSSLHESLHIGQSRTPETTESQVKDSSLCVSGETLAAGTSSPKTEGKHEETVNKESDMKVPTVSLKVSESVIDVKTTMESISNTSTQSLTAETKDIALEPKEQKHEDRQSNTPSPPVSTFSSGTSTTSDIEVLDHESVISESSASSRQETTDSKSSLHLMQTSFQLLSASACPEYNRLDDFQKLTESCCSSDAFERIDSFSVQSLDSRSVSEINSDDELSGKGYALVPIIVNSSTPKSKTVESAEGKSEEVNETLVIPTEEAEMEESGRSATPVNCEQPDILVSSTPINEGQTVLDKVAEQCEPAESQPEALSEKEDVCKTVEFLNEKLEKREAQLLSLSKEKALLEEAFDNLKDEMFRVKEESSSISSLKDEFTQRIAEAEKKVQLACKERDAAKKEIKNIKEELATRLNSSETADLLKEKDEQIRGLMEEGEKLSKQQLHNSNIIKKLRAKDKENENMVAKLNKKVKELEEELQHLKQVLDGKEEVEKQHRENIKKLNSMVERQEKDLGRLQVDMDELEEKNRSIQAALDSAYKELTDLHKANAAKDSEAQEAALSREMKAKEELSAALEKAQEEARQQQETLAIQVGDLRLALQRTEQAAARKEDYLRHEIGELQQRLQEAENRNQELSQSVSSTTRPLLRQIENLQATLGSQTSSWEKLEKNLSDRLGESQTLLAAAVERERAATEELLANKIQMSSMESQNSLLRQENSRFQAQLESEKNRLCKLEDENNRYQVELENLKDEYVRTLEETRKEKTLLNSQLEMERMKVEQERKKAIFTQETIKEKERKPFSVSSTPTMSRSSSISGVDMAGLQTSFLSQDESHDHSFGPMPISANGSNLYDAVRMGAGSSIIENLQSQLKLREGEITHLQLEIGNLEKTRSIMAEELVKLTNQNDELEEKVKEIPKLRTQLRDLDQRYNTILQMYGEKAEEAEELRLDLEDVKNMYKTQIDELLRQSLS

Molecular target: Rab2A(Q65L)-BirA*-HA-MAO (human) (UniProt P61019)
Assay: proximity labelling; MitoID: GTPase-BirA*-HA-MAO chimera on mitochondria of transiently transfected HEK293T cells, 50 uM biotin 18 h, streptavidin beads, mass spectrometry, biological triplicates; hits by WD scores and volcano plots against the GDP-locked forms

Row | binding | Binder
1 | binds | B1

Molecular target: Rab6A(Q72L)-BirA*-HA-MAO (human) (UniProt P20340)
Assay: as above

Row | binding | Binder
2 | binds | B2
3 | binds | B3
4 | binds | B4
5 | binds | B5
6 | binds | B6
